From publication PMC12062965, “Transposable Elements Drive Regulatory and Functional Innovation of F-box Genes” come the findings set out here.

The chains behind the UniProt entries cited, without tags or fusion partners.
UniProt G5ECU1: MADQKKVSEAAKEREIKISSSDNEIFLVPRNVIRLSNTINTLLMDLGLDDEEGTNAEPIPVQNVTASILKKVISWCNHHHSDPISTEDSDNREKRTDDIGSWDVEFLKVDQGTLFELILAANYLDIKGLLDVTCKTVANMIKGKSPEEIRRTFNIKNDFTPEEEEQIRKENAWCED

Results are given in words; binding and its absence hold for the method and conditions named. In cells and extracts the contact can be indirect. These calls come from enrichment with a bait or labelling near it, and not all partners need be listed.

This assay addresses GST::FBXA-215 (C. elegans). The assay is described as follows: affinity purification with mass spectrometry; 5 ug GST-F-box fusion on glutathione Sepharose beads incubated with 300 to 700 ug C. elegans extract (young adult animals or embryos) for 3 h at 4 °C; 25 mM Tris HCl pH 7.5, 150 mM NaCl, 1.5 mM MgCl2, 1 mM DTT; label-free quantitative mass spectrometry, interactors defined by enrichment over GST alone; only the target purified.

Take SKR-1 (from UniProt G5ECU1 1-176): the binding entry was “binds”.
